PubChem BioAssay AID493014 (National Center for Advancing Translational Sciences (NCATS), 2011)
This is one part of the list. The main result of the screen is listed elsewhere. These columns were measured beside it and carry no call. The list favours compounds with an active or inconclusive main result. Words in brackets tell the shape of the fitted curve; partial curves, single points and poor fits give uncertain potencies.

experiment: qHTS Assay to Find Inhibitors of Chronic Active B-Cell Receptor Signaling; conditions: ABC-DLBCL IkBa-CBG/CBR reporter, luminescence ratio (green luciferase fused to IkBa over red control in TMD8 lymphoma cells), 4 h; measured here: CBR red luminescence, cell number
Summary of the method: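 TMD8 human ABC-DLBCL cells with doxycycline-inducible IκBα–green luciferase fusion and unfused red luciferase, in 0.5% FBS medium; compounds up to 46 uM, 4 h at 37C. Green/red luminescence ratio, filter-overlap corrected, fitted to concentration-response curves.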

SMILES	AC50
COc1cc(/C=C2/C(=N)N3C(=NC2=O)SN=C3S(C)(=O)=O)ccc1OS(=O)(=O)c1ccccc1	11.2 µM [rising, partial curve, poor fit]
O=C(O)Cn1cc(/C=c2/sc3nc4ccccc4n3c2=O)c2ccccc21	1.58 µM [falling, full curve]
COc1cc(/C=C2\C(=N)N3N=C(S(C)(=O)=O)SC3=NC2=O)cc(OC)c1OCCOc1cccc(C)c1	17.8 µM [rising, partial curve, poor fit]
O=C(O)COc1ccccc1/C=N/NC(=O)CSc1nnc(SCc2cccc3ccccc23)s1	3.55 µM [falling, partial curve, poor fit]
